{"source": "PubChem BioAssay AID236", "about": "(DTP/NCI, 2004)", "test_system": "AK4 lymphoid leukemia ip, C3AKF1 mice, survival", "experiment": "NCI In Vivo Anticancer Drug Screen. Data for tumor model AK4 Lymphoid Leukemia (intraperitoneal) in C3AKF1 (CHKRF1) mice", "settings": "T/C endpoint: median survival time, schedule: Q01DX010 (ip), vehicle: saline, higher T/C = longer survival", "experimental": "The antitumor activity of compounds was measured in mice bearing transplantable tumors. Survival or tumor size were measured and the results are expressed as the measurement made in the treated group (T) divided by the measurement made in the vehicle treated control group (C). The tumor model used in this assay is AK4 Lymphoid Leukemia (intraperitoneal) in C3AKF1 (CHKRF1) mice", "note": "The list is a part of this screen's results and no random one: its compounds were picked by chemical class. Other doses and runs of a compound may be missing. T/C gives the treated animals as a percentage of the vehicle group. Where survival is the endpoint, this PubChem deposit counts one and a half times the control or more as active, and values a quarter to a half above the control carry no call in these data; other NCI protocols may use other cut-offs. Some T/C values are marked as having no survivor count here; that says nothing about deaths at the dose. Schedules are NCI's codes, taken here to give the interval after Q, in days (D) or hours (H), and the number of doses after X. Some entries were tested several times; the results are listed from low to high.", "data": [{"smiles": "CN(CCCl)CCCl", "values": [{"measurement": "T/C", "setting": "dose: 0.13 mg/kg/injection", "value": "125 % of control [survivor count not shown]"}, {"measurement": "T/C", "setting": "dose: 0.25 mg/kg/injection", "value": "131 [survivor count not shown] and 150 % of control [survivor count not shown]"}, {"measurement": "T/C", "setting": "dose: 0.5 mg/kg/injection", "value": "125 [survivor count not shown] and 135 % of control [survivor count not shown]"}, {"measurement": "T/C", "setting": "dose: 1.0 mg/kg/injection", "value": "87 [survivor count not shown] and 128 % of control [survivor count not shown]"}]}]}
